Data as given in PubChem BioAssay AID1259424 (University of Nebraska Medical Center, 2018).

- Test: 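Seek colon cancer survival genes behaving like KSR1, using a six-gene signature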 (primary screen)
- Cells: human HCT116 colon cancer cells
- Knock-down reagent: siRNA pool against human genes, 50 nM
- Measurement: 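Six signature mRNAs by branched-DNA multiplex assay, scaled to two housekeeping genes and non-targeting median, log2; matched to mean KSR1 knockdown profile by Pearson correlation and euclidean distance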
- Direction: mean correlation with KSR1 profile: higher = expression change more like KSR1 knockdown
In all, the deposit lists about 14,000 reagents; shown is a random part of them. 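Higher correlation or smaller distance means closer resemblance to KSR1 loss; control wells, including KSR1 knockdowns, recur on many plates.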 Not all columns of the deposit are shown. Not stated in the record: the time to read-out.

gene	mean correlation with KSR1 profile
UQCR10	0.807
EPHX4	-0.104
RFX5	0.254
MDGA1	0.0457
INTS11	-0.369
EPHX3	-0.0135
GLMN	-0.285
ARHGAP26	-0.684
NID2	0.195
C5	0.74
POMK	0.426
ESR2	-0.111
MTREX	-0.395
MYBPC2	0.0988
GSTM5	-0.432
NASP	-0.176
RCL1	0.246
GPX2	0.15
GLRX2	0.038
RANBP6	0.14
SNRNP27	-0.554
IFRD1	-0.42
ADRB1	0.624
DARS2	-0.417
RPLP1	0.16
ATP8B1	-0.235
GALC	0.705
NHERF2	0.519
TMEM184B	0.609
NT5C1A	0.572
TPP1	-0.906
OTOA	-0.246
LRRC31	0.636
TUBB4A	0.404

Sorted by “mean correlation with KSR1 profile” (ascending): 2 of the entries above
gene	mean correlation with KSR1 profile
GLRX2	0.038
RANBP6	0.14
